Reference: patent US7067653B2, “Porphyrin Based neuton capture agents for cancer therapy” (The Regents of the University of California, priority 2000, dated 2006)

System: 9L, U-373MG and B16 cells
Assay: Concentration-dependent cellular uptake
Assay type: cell-based
Conditions: cells exposed to 1, 5 and 10 μM for 24 hours
Protocol: The concentration-dependent uptake of compounds 4, 6, 10 and the corresponding Zn(II) complex of 10 was investigated in cells exposed to 1, 5, and 10 μM of the porphyrins for 24 hours. The concentration of intracellular-bound porphyrin was determined by chemical extraction of washed cell monolayers, followed by spectrophotometric and/or IMP-MS determinations. The uptake values for 9L and U-373MG cells were very similar and exceeded that of B16 cells.

Substance | uptake relative to the corresponding Zn(II) complexes
meso-tetra[3-(1-methyl-nido-carboranyl)methylphenyl]porphyrin tetrapotassium salt [Compound 10] | approximately 4 times
meso-tetra[4-(1-methyl-nido-carboranyl)methylphenyl]porphyrin tetrapotassium salt [Compound 4] | approximately 4 times
